Data as given in PubChem BioAssay AID1904 (GNF, 2009)
Only reagents picked out of a larger screen are listed. 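Lists only primary-screen hits; phenotype classes come from fitted traces, and the underlying luminescence values are not given.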 The numbers tell different reagents against one gene apart.

- Screen: 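Knockdowns that alter circadian period or oscillation amplitude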 (follow-up of hits)
- System: human U2OS osteosarcoma cells stably expressing a destabilised luciferase driven by the Bmal1 promoter
- Knock-down reagent: siRNA pair against human genes, 12.5 nM (two siRNAs, 0.5 pmol each, per well)
- Time to read-out: about 3 days after transfection, then luminescence recorded for about 4 days
- Measured: 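Bmal1 reporter light output measured every 2 hours over several days, detrended, then fitted to give period and amplitude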
- Active means: 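Scored active if separate single siRNAs repeated the clock phenotype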
- Meaning of the calls: active = confirmed by single siRNAs; inactive = not confirmed

gene	reagent no.	clock phenotype class	confirmed with single siRNAs	call
LOXL3	1	higher rhythm amplitude; seen with two independent siRNA pairs for the gene	phenotype reproduced by individual siRNAs	active
LOXL3	2	higher rhythm amplitude; seen with two independent siRNA pairs for the gene	phenotype reproduced by individual siRNAs	active
KIAA1287	1	longer clock period; seen with two independent siRNA pairs for the gene	phenotype reproduced by individual siRNAs	active
KIAA1287	2	longer clock period; seen with two independent siRNA pairs for the gene	phenotype reproduced by individual siRNAs	active
C9orf86	1	longer clock period; seen with two independent siRNA pairs for the gene	not retested with individual siRNAs	
C9orf86	2	longer clock period; seen with two independent siRNA pairs for the gene	not retested with individual siRNAs	
KCNJ1	1	longer clock period; seen with two independent siRNA pairs for the gene	phenotype reproduced by individual siRNAs	active
KCNJ1	2	longer clock period; seen with two independent siRNA pairs for the gene	phenotype reproduced by individual siRNAs	active
SYCP2	1	higher rhythm amplitude; seen with one siRNA pair in duplicate wells	phenotype not reproduced by individual siRNAs	inconclusive
SYCP2	2	higher rhythm amplitude; seen with one siRNA pair in duplicate wells	phenotype not reproduced by individual siRNAs	inconclusive
DHX29	1	shorter clock period; seen with two independent siRNA pairs for the gene	not retested with individual siRNAs	
DHX29	2	shorter clock period; seen with two independent siRNA pairs for the gene	not retested with individual siRNAs	
MGC2941	1	longer clock period; seen with two independent siRNA pairs for the gene	phenotype reproduced by individual siRNAs	active
MGC2941	2	longer clock period; seen with two independent siRNA pairs for the gene	phenotype reproduced by individual siRNAs	active
BCR	1	shorter clock period; seen with two independent siRNA pairs for the gene	phenotype reproduced by individual siRNAs	active
BCR	2	shorter clock period; seen with two independent siRNA pairs for the gene	phenotype reproduced by individual siRNAs	active
CXorf15	1	longer clock period; seen with two independent siRNA pairs for the gene	phenotype reproduced by individual siRNAs	active
CXorf15	2	longer clock period; seen with two independent siRNA pairs for the gene	phenotype reproduced by individual siRNAs	active
GRIA2	1	higher rhythm amplitude; seen with one siRNA pair in duplicate wells	phenotype not reproduced by individual siRNAs	inconclusive
GRIA2	2	higher rhythm amplitude; seen with one siRNA pair in duplicate wells	phenotype not reproduced by individual siRNAs	inconclusive
HIST1H1B	1	higher rhythm amplitude; seen with one siRNA pair in duplicate wells	phenotype reproduced by individual siRNAs	active
HIST1H1B	2	higher rhythm amplitude; seen with one siRNA pair in duplicate wells	phenotype reproduced by individual siRNAs	active
PSMD13	1	longer clock period; seen with two independent siRNA pairs for the gene	phenotype reproduced by individual siRNAs	active
GPR158	1	longer clock period; seen with two independent siRNA pairs for the gene	phenotype reproduced by individual siRNAs	active
GPR158	2	longer clock period; seen with two independent siRNA pairs for the gene	phenotype reproduced by individual siRNAs	active
CDK9	1	longer clock period; seen with two independent siRNA pairs for the gene	phenotype reproduced by individual siRNAs	active
CDK9	2	longer clock period; seen with two independent siRNA pairs for the gene	phenotype reproduced by individual siRNAs	active
NEIL1	1	shorter clock period; seen with one siRNA pair in duplicate wells	phenotype not reproduced by individual siRNAs	inconclusive
NEIL1	2	shorter clock period; seen with one siRNA pair in duplicate wells	phenotype not reproduced by individual siRNAs	inconclusive
GIPC2	1	longer clock period; seen with two independent siRNA pairs for the gene	phenotype reproduced by individual siRNAs	active
GIPC2	2	longer clock period; seen with two independent siRNA pairs for the gene	phenotype reproduced by individual siRNAs	active
PEG3	1	longer clock period; seen with two independent siRNA pairs for the gene	phenotype reproduced by individual siRNAs	active
PEG3	2	longer clock period; seen with two independent siRNA pairs for the gene	phenotype reproduced by individual siRNAs	active
FBXO45	1	longer clock period; seen with two independent siRNA pairs for the gene	phenotype reproduced by individual siRNAs	active
FBXO45	2	longer clock period; seen with two independent siRNA pairs for the gene	phenotype reproduced by individual siRNAs	active
ZNF211	1	higher rhythm amplitude; seen with one siRNA pair in duplicate wells	phenotype not reproduced by individual siRNAs	inconclusive
ABL1	1	shorter clock period; seen with two independent siRNA pairs for the gene	phenotype reproduced by individual siRNAs	active
ABL1	2	shorter clock period; seen with two independent siRNA pairs for the gene	phenotype reproduced by individual siRNAs	active
CAD	1	higher rhythm amplitude; seen with one siRNA pair in duplicate wells	phenotype reproduced by individual siRNAs	active
CAD	2	higher rhythm amplitude; seen with one siRNA pair in duplicate wells	phenotype reproduced by individual siRNAs	active
RRBP1	1	shorter clock period; seen with one siRNA pair in duplicate wells	not retested with individual siRNAs	
RRBP1	2	shorter clock period; seen with one siRNA pair in duplicate wells	not retested with individual siRNAs	
GUCY2C	1	shorter clock period; seen with one siRNA pair in duplicate wells	phenotype reproduced by individual siRNAs	active
GUCY2C	2	shorter clock period; seen with one siRNA pair in duplicate wells	phenotype reproduced by individual siRNAs	active
FBXL3	1	longer clock period; seen with two independent siRNA pairs for the gene	phenotype reproduced by individual siRNAs	active
FBXL3	2	longer clock period; seen with two independent siRNA pairs for the gene	phenotype reproduced by individual siRNAs	active
TRPM4	1	longer clock period; seen with two independent siRNA pairs for the gene	phenotype reproduced by individual siRNAs	active
TRPM4	2	longer clock period; seen with two independent siRNA pairs for the gene	phenotype reproduced by individual siRNAs	active
FBXW11	1	longer clock period; seen with two independent siRNA pairs for the gene	phenotype reproduced by individual siRNAs	active
FBXW11	2	longer clock period; seen with two independent siRNA pairs for the gene	phenotype reproduced by individual siRNAs	active
UBAP2	1	longer clock period; seen with two independent siRNA pairs for the gene	phenotype reproduced by individual siRNAs	active
CBLN1	1	longer clock period; seen with two independent siRNA pairs for the gene	phenotype not reproduced by individual siRNAs	inconclusive
CBLN1	2	longer clock period; seen with two independent siRNA pairs for the gene	phenotype not reproduced by individual siRNAs	inconclusive
CASC1	1	shorter clock period; seen with two independent siRNA pairs for the gene	phenotype reproduced by individual siRNAs	active
CASC1	2	shorter clock period; seen with two independent siRNA pairs for the gene	phenotype reproduced by individual siRNAs	active
LOC197322	1	shorter clock period; seen with two independent siRNA pairs for the gene	phenotype reproduced by individual siRNAs	active
LOC197322	2	shorter clock period; seen with two independent siRNA pairs for the gene	phenotype reproduced by individual siRNAs	active
TRRAP	1	higher rhythm amplitude; seen with one siRNA pair in duplicate wells	phenotype reproduced by individual siRNAs	active
TRRAP	2	higher rhythm amplitude; seen with one siRNA pair in duplicate wells	phenotype reproduced by individual siRNAs	active
ZSWIM3	1	longer clock period; seen with two independent siRNA pairs for the gene	not retested with individual siRNAs	
ZSWIM3	2	longer clock period; seen with two independent siRNA pairs for the gene	not retested with individual siRNAs	
ZNF358	1	shorter clock period; seen with two independent siRNA pairs for the gene	phenotype reproduced by individual siRNAs	active
ZNF358	2	shorter clock period; seen with two independent siRNA pairs for the gene	phenotype reproduced by individual siRNAs	active
DKFZP564O0463	1	shorter clock period; seen with one siRNA pair in duplicate wells	phenotype not reproduced by individual siRNAs	inconclusive
DKFZP564O0463	2	shorter clock period; seen with one siRNA pair in duplicate wells	phenotype not reproduced by individual siRNAs	inconclusive
DOK5	1	higher rhythm amplitude; seen with one siRNA pair in duplicate wells	phenotype not reproduced by individual siRNAs	inconclusive
DOK5	2	higher rhythm amplitude; seen with one siRNA pair in duplicate wells	phenotype not reproduced by individual siRNAs	inconclusive
NUP88	1	longer clock period; seen with two independent siRNA pairs for the gene	phenotype reproduced by individual siRNAs	active
NUP88	2	longer clock period; seen with two independent siRNA pairs for the gene	phenotype reproduced by individual siRNAs	active
MYL5	1	longer clock period; seen with two independent siRNA pairs for the gene	not retested with individual siRNAs	
MYL5	2	longer clock period; seen with two independent siRNA pairs for the gene	not retested with individual siRNAs	
MAP3K11	1	longer clock period; seen with two independent siRNA pairs for the gene	phenotype reproduced by individual siRNAs	active
MAP3K11	2	longer clock period; seen with two independent siRNA pairs for the gene	phenotype reproduced by individual siRNAs	active
ZNF75	1	higher rhythm amplitude; seen with one siRNA pair in duplicate wells	phenotype reproduced by individual siRNAs	active
ZNF75	2	higher rhythm amplitude; seen with one siRNA pair in duplicate wells	phenotype reproduced by individual siRNAs	active
SLC34A3	1	longer clock period; seen with two independent siRNA pairs for the gene	phenotype reproduced by individual siRNAs	active
SLC34A3	2	longer clock period; seen with two independent siRNA pairs for the gene	phenotype reproduced by individual siRNAs	active
TCTA	1	higher rhythm amplitude; seen with one siRNA pair in duplicate wells	phenotype reproduced by individual siRNAs	active
TCTA	2	higher rhythm amplitude; seen with one siRNA pair in duplicate wells	phenotype reproduced by individual siRNAs	active
KCNV1	1	higher rhythm amplitude; seen with one siRNA pair in duplicate wells	phenotype not reproduced by individual siRNAs	inconclusive
KCNV1	2	higher rhythm amplitude; seen with one siRNA pair in duplicate wells	phenotype not reproduced by individual siRNAs	inconclusive
TMEM2	1	longer clock period; seen with two independent siRNA pairs for the gene	phenotype reproduced by individual siRNAs	active
TMEM2	2	longer clock period; seen with two independent siRNA pairs for the gene	phenotype reproduced by individual siRNAs	active
ZNF91	1	longer clock period; seen with two independent siRNA pairs for the gene	phenotype reproduced by individual siRNAs	active
ZNF91	2	longer clock period; seen with two independent siRNA pairs for the gene	phenotype reproduced by individual siRNAs	active
PANK2	1	longer clock period; seen with two independent siRNA pairs for the gene	phenotype reproduced by individual siRNAs	active
PANK2	2	longer clock period; seen with two independent siRNA pairs for the gene	phenotype reproduced by individual siRNAs	active
GPR135	1	longer clock period; seen with two independent siRNA pairs for the gene	phenotype reproduced by individual siRNAs	active
GPR135	2	longer clock period; seen with two independent siRNA pairs for the gene	phenotype reproduced by individual siRNAs	active
TNT	1	higher rhythm amplitude; seen with one siRNA pair in duplicate wells	not retested with individual siRNAs	
TNT	2	higher rhythm amplitude; seen with one siRNA pair in duplicate wells	not retested with individual siRNAs	
BTC	1	higher rhythm amplitude; seen with one siRNA pair in duplicate wells	phenotype not reproduced by individual siRNAs	inconclusive
BTC	2	higher rhythm amplitude; seen with one siRNA pair in duplicate wells	phenotype not reproduced by individual siRNAs	inconclusive
FLJ10786	1	longer clock period; seen with two independent siRNA pairs for the gene	phenotype reproduced by individual siRNAs	active
FLJ10786	2	longer clock period; seen with two independent siRNA pairs for the gene	phenotype reproduced by individual siRNAs	active
FLJ20508	1	shorter clock period; seen with two independent siRNA pairs for the gene	phenotype reproduced by individual siRNAs	active
FLJ20508	2	shorter clock period; seen with two independent siRNA pairs for the gene	phenotype reproduced by individual siRNAs	active
SPR	1	higher rhythm amplitude; seen with one siRNA pair in duplicate wells	not retested with individual siRNAs	
SPR	2	higher rhythm amplitude; seen with one siRNA pair in duplicate wells	not retested with individual siRNAs	
FGF19	1	longer clock period; seen with two independent siRNA pairs for the gene	phenotype reproduced by individual siRNAs	active
FGF19	2	longer clock period; seen with two independent siRNA pairs for the gene	phenotype reproduced by individual siRNAs	active
ITGA2B	1	longer clock period; seen with two independent siRNA pairs for the gene	phenotype reproduced by individual siRNAs	active
ITGA2B	2	longer clock period; seen with two independent siRNA pairs for the gene	phenotype reproduced by individual siRNAs	active
SLC39A12	1	higher rhythm amplitude; seen with one siRNA pair in duplicate wells	phenotype not reproduced by individual siRNAs	inconclusive
SLC39A12	2	higher rhythm amplitude; seen with one siRNA pair in duplicate wells	phenotype not reproduced by individual siRNAs	inconclusive
RNF34	1	longer clock period; seen with two independent siRNA pairs for the gene	phenotype reproduced by individual siRNAs	active
RNF34	2	longer clock period; seen with two independent siRNA pairs for the gene	phenotype reproduced by individual siRNAs	active

9 entries from above, reduced to “confirmed with single siRNAs”:
CDK9 #1	phenotype reproduced by individual siRNAs
CDK9 #2	phenotype reproduced by individual siRNAs
NEIL1 #1	phenotype not reproduced by individual siRNAs
NEIL1 #2	phenotype not reproduced by individual siRNAs
GIPC2 #1	phenotype reproduced by individual siRNAs
GIPC2 #2	phenotype reproduced by individual siRNAs
PEG3 #1	phenotype reproduced by individual siRNAs
PEG3 #2	phenotype reproduced by individual siRNAs
FBXO45 #1	phenotype reproduced by individual siRNAs
